According to patent publication EP4620964A1, “PEPTIDE HAVING SKIN WHITENING ACTIVITY AND USE THEREOF” (Caregen Co., Ltd., priority 2022, dated 2025):
At least one peptide structure holds a part that was inferred or is arguable (an end, a ring closure or a residue). Residues, ends and D or L forms follow the SMILES beside them.

What was measured:
[1] = system: HaCaT cells; experiment: Incorporation of melanosomes by phagocytosis (melanin content, absorbance at 490 nm); format: cell-based, Human; conditions: peptide 50 µM, 100 µM, 200 µM; 24 hours, then melanosomes 10 µg/mL for 48 hours; FIG. 1
[2] = system: PAR2 gene; experiment: PCR analysis of PAR2 gene expression after trypsin; format: cell-based, Human; conditions: HaCaT cells; peptide 10 µM, 50 µM, 100 µM, 200 µM; 24 hours, then 4 units of trypsin for 16 hours; compared to the control group; FIGS. 2a and 2b
[3] = system: TLR3 gene; experiment: PCR analysis of TLR3 gene expression after poly(I:C); format: cell-based, Human; conditions: HaCaT cells; peptide 10 µM, 50 µM, 100 µM, 200 µM; 30 µg/mL poly(I:C) after 30 minutes; 24 hours; compared to the control group; FIGS. 3a and 3b
[4] = system: KGFR gene; experiment: PCR analysis of KGFR gene expression; format: cell-based, Human; conditions: HaCaT cells; peptide 10 µM, 50 µM, 100 µM, 200 µM; 6 hours; compared to the control group; FIGS. 4a and 4b
[5] = system: HaCaT cells; experiment: Melanosome degradation analysis (melanin amount, absorbance at 490 nm); format: cell-based, Human; conditions: HaCaT cells preloaded with melanosomes 10 µg/mL for 48 hours; peptide 10 µM, 50 µM, 100 µM, 200 µM; 72 hours; FIG. 5
[6] = system: Beclin-1 protein; experiment: Autophagy flux activation, Western blot of Beclin-1; format: cell-based, human; conditions: HaCaT cells; peptide 50 µM, 100 µM, 200 µM; 3 hours; compared to the negative control (CON); FIGS. 6a to 6c
[7] = system: LC3-I/II protein; experiment: Autophagy flux activation, Western blot of LC3-I/II; format: cell-based, human; conditions: HaCaT cells; peptide 50 µM, 100 µM, 200 µM; 3 hours; compared to the negative control (CON); FIGS. 6a to 6c

N=C(N)NCCC[C@H](NC(=O)[C@@H](N)CCC(=O)O)C(=O)N[C@@H](Cc1c[nH]c2ccccc12)C(=O)N[C@@H](Cc1c[nH]c2ccccc12)C(=O)O [peptide of SEQ ID NO: 1, ERWW(Glu-Arg-Trp-Trp)] (H-ERWW-OH)
incorporation of melanosomes into HaCaT cells by the phagocytosis of melanosomes [1]: inhibited
mRNA level of the PAR2 gene [2]: reduced
mRNA level of the gene of TLR3 [3]: reduced
mRNA level of the gene of KGFR [4]: reduced
change in melanosome content (degradation of melanosomes) [5]: induces the degradation of melanosomes
amount of Beclin-1 protein [6]: increased
amount of LC3-I/II protein [7]: increased
